# Results reported in the supplement of paper PMC12578635.
# Some of the results follow. Rule as the data show it: active = 150% or more and inactive = the rest. Repeats are few or missing, and single values can be far off.
# Test system: Staphylococcus aureus JE2-lux inside RAW 264.7 macrophages
# Test: intracellular bacterial bioluminescence relative to DMSO vehicle; higher = higher intracellular bacterial metabolic activity
# Conditions: 10 µM; treatment time 4 h; gentamicin 50 µg/ml
row,SMILES,intracellular bacterial bioluminescence
1,Cc1oc2ncnc(N3CCC(C(=O)NCCc4ccccc4Cl)CC3)c2c1C,inactive: 94.2%
2,O=C(OC1CCCCC1)c1cc2ccccc2oc1=O,inactive: 131%
3,Cc1ccc(-c2c(C(F)(F)F)nn3c(NCCN(C)C)cc(C)nc23)cc1,inactive: 119%
4,Cc1ccc(C(=O)CSc2nnc3[nH]c(=O)c(C)nn23)cc1C,inactive: 110%
5,CC(Cn1cnc2ccccc21)C(=O)N/N=C1/C(=O)Nc2ccccc21 (configuration not stated),inactive: 88%
6,CC(=O)c1csc(NC(=O)c2cc3ncc(C(C)=O)c(C)n3n2)n1,inactive: 149%
7,CCOC(=O)c1nn(-c2ccc(Cl)c(Cl)c2)cc1O,inactive: 99.3%
8,Nn1c(-c2ccncc2)nn2c(=O)c3ccccc3nc12,inactive: 101%
9,CC(C)c1ccc2nc3sc(C(=O)N4CC(=O)Nc5ccccc54)c(N)c3cc2c1,inactive: 74.5%
10,Cc1cc(C)cc(NC(=O)NCc2ccnc(N3CCCCC3)c2)c1,inactive: 56.9%
11,Clc1cccc(/C=N/Nc2ncnc3[nH]cnc23)c1,inactive: 112%
12,CC(=O)/N=c1\sccn1CC(=O)c1ccc([N+](=O)[O-])cc1,inactive: 97.7%
13,O=C(Nc1cccc(Br)c1)c1cccc2nc3ccccc3nc12,inactive: 124%
14,CCCCCCC1C(C#N)=C(N)OC2=C1C(=O)CC(C)(C)C2 (configuration not stated),inactive: 89.7%
15,O=C(CCc1ccccc1)Nc1nc2c(s1)CSc1ccccc1-2,inactive: 81.7%
16,O=C(COc1ccc(Cl)cc1Cl)NCC(=O)N/N=C/c1cccs1,inactive: 94.3%
17,Cc1ccn2cc(CCNS(=O)(=O)c3ccc([N+](=O)[O-])cc3)nc2c1,inactive: 89.4%
18,COc1ccc(CCNC(=O)CSc2ncnc3[nH]ncc23)cc1OC,inactive: 92.2%
19,CCOC(=O)c1ccc(NC(=O)CSc2nccnc2N2CCN(c3ccccc3)CC2)cc1,inactive: 77.3%
20,Cc1ccc(-c2nc3nc(C)cc(NCCO)n3n2)cc1,inactive: 95.9%
21,Cc1ccc(C2=N/C(=C/c3ccc([N+](=O)[O-])cc3)C(=O)O2)cc1,inactive: 101%
22,Cc1ccc(-c2nc(CN3CCC(C(=O)Nc4ncccc4O)CC3)no2)cc1,inactive: 123%
23,Cc1ccc2c(c1)NC(=O)c1cc(NS(=O)(=O)c3ccc(C)c(Cl)c3)ccc1O2,inactive: 110%

row,SMILES,intracellular bacterial bioluminescence
1,N#Cc1cc2cc3c(cc2nc1SCC(=O)Nc1ccc(F)c(Cl)c1)OCO3,inactive: 110%
2,O=C(CCn1c(=S)oc2ccccc21)Nc1ccc(F)cc1,inactive: 100%
3,O=C1c2oc3ccc(Cl)cc3c(=O)c2C(c2cccnc2)N1Cc1ccco1 (configuration not stated),inactive: 90.2%
4,Cc1nnc(NC(=O)c2cc(Cl)ccc2Cl)s1,inactive: 92.9%
5,COc1cc([N+](=O)[O-])cc2sc(NC(=O)c3ccc(N4C(=O)CCC4=O)cc3)nc12,inactive: 97.3%
6,O=C(CSC1=NS(=O)(=O)c2ccccc2N1)N1CCCC1,inactive: 136%
7,COC(=O)C1CCN(C(c2cccs2)c2sc3ncnn3c2O)CC1 (configuration not stated),inactive: 82.5%
8,CCOc1ccc2nc(-n3nc(C)c4c3NC(=O)CC4c3ccc([N+](=O)[O-])s3)sc2c1 (configuration not stated),inactive: 87.3%
9,CCn1c(=O)c2sccc2n2c(CCCC(=O)NCCc3ccc(S(N)(=O)=O)cc3)nnc12,inactive: 86.8%
10,O=C(CSc1nc(=O)n2ccccc2n1)Nc1ccccc1C(F)(F)F,inactive: 103%
11,O=C1/C(=C/c2ccc(F)cc2)Oc2c1ccc(O)c2CN1CCCC1,inactive: 81.6%
12,O=C(CSc1ncnc2c1oc1ccccc12)NCC1CCCO1 (configuration not stated),inactive: 92.4%
13,Cc1oc(-c2ccno2)cc1S(=O)(=O)NCCC1=CCCCC1,inactive: 102%
14,COc1ccccc1N1CCN(C(=O)CSc2nnc3ccc(C(=O)Nc4ccc(C)cc4)cn23)CC1,inactive: 78%
15,Cc1cc(Cl)ccc1OCc1nc(-c2ccc3c(c2)[nH]c(=O)n3C2CCCC2)no1,inactive: 109%
16,O=C1NC(=S)/C(=C\c2ccc(-c3cc(Cl)ccc3Cl)o2)S1,inactive: 90.1%
17,Cc1ccc(S(=O)(=O)CCC(=O)N(CCN(C)C)c2nc3cc(C)cc(C)c3s2)cc1,inactive: 146%
18,O=C(Cn1cnc2c(cnn2-c2ccc(F)cc2)c1=O)NCC1CCCO1 (configuration not stated),inactive: 115%
19,COc1ccc(CCNC(=O)c2c(O)nc3scc(C)n3c2=O)cc1,inactive: 103%
20,O=C(NCC1CCN(Cc2ccccc2F)CC1)C1CCCN(c2ccc(N3CCOCC3)nn2)C1 (configuration not stated),inactive: 85.1%
21,Cc1cc2ncc(N3CCN(C4CCCCC4)CC3)nc2cc1C,inactive: 81%
22,COc1ccc(-c2cnc(NC(=O)c3ccc4nc(C)[nH]c4c3)n2C)cc1,inactive: 79.4%
23,O=C(Nc1cccc2ccccc12)N1CCCC(O)C1 (configuration not stated),inactive: 112%

row,SMILES,intracellular bacterial bioluminescence
1,CC1=C(C(=O)Nc2ccc(C)c(Cl)c2)C(c2ccc(C)cc2)NC(=O)N1 (configuration not stated),inactive: 101%
2,COc1nn(C)cc1C(=O)Nc1cccc(C(F)(F)F)c1,inactive: 111%
3,COc1ccccc1NCc1nc2[nH]c(C)cc(=O)n2n1,active: 193%
4,COCCN(CCOC)C(=O)CN1C(=O)c2ccccc2S1(=O)=O,inactive: 97.4%
5,O=C1CN(C(=O)CSc2nnc(-c3ccccc3)c(-c3ccccc3)n2)c2ccccc2N1,inactive: 67.7%
6,O=C(NCCc1cn2ccccc2n1)c1ccc([N+](=O)[O-])cc1,inactive: 68%
7,Fc1cc(F)c2nc(N3CCc4ccccc4C3)sc2c1,inactive: 67.9%
8,Cc1ccc(-c2cc(N)c(=O)n(CC(=O)NCC3CCCO3)n2)o1 (configuration not stated),inactive: 101%
9,COC(=O)c1c(NC(=O)/C=C/c2ccccc2Cl)sc2c1CC(C)(C)NC2(C)C,inactive: 104%
10,Cn1c(=O)c2c(nc3n2CC(C(C)(C)C)=NN3Cc2ccccc2Cl)n(C)c1=O,active: 151%
11,O=S(=O)(Nc1cccc(-c2ccc(N3CCOCC3)nn2)c1)c1ccc(Cl)c(Cl)c1,inactive: 134%
12,CCCCOc1ccc(C(=O)NCCc2cc3ccc(C)c(C)c3[nH]c2=O)cc1,inactive: 85.4%
13,CCOC(=O)C1CCN(c2nc(C)nc3c2c(C)c(C)n3-c2ccccc2)CC1,inactive: 70.8%
14,COc1ccc(N2CCN(C(=O)CSc3nnc4c(n3)[nH]c3ccccc34)CC2)cc1,inactive: 105%
15,O=C1NC(=O)C2C1C(c1ccc(Cl)cc1)NN2Cc1ccccc1 (configuration not stated),inactive: 87.6%
16,Cc1cc(C)nc(N2CCC(C(=O)NNC(=O)c3ccccc3)CC2)n1,inactive: 98.1%
17,Cc1cc(=O)n2nc(CN(C(=O)c3ccccc3F)c3ccc(Cl)cc3)nc2[nH]1,inactive: 110%
18,N#C/C(=C/c1ccco1)c1nc(-c2cccc([N+](=O)[O-])c2)cs1,inactive: 111%
19,Cc1cc(NS(=O)(=O)c2ccc(NC(=O)c3cc4c(ccc5ccccc54)oc3=O)cc2)no1,inactive: 98.1%
20,CCOCCCn1c(=N)c(C(=O)NC)cc2c(=O)n3ccccc3nc21,inactive: 99.2%
21,CC(C)CNC(=O)c1cncc(NS(=O)(=O)c2ccc3c(c2)OCCO3)c1,inactive: 113%
22,O=c1[nH]c2ccc(S(=O)(=O)Nc3ccccc3O)cc2[nH]1,inactive: 105%
23,Cc1c(C(=O)O)sc2nc(SCC(=O)O)[nH]c(=O)c12,inactive: 112%

# Arranged by molar mass (descending): some entries from above
row,SMILES,intracellular bacterial bioluminescence
11,O=S(=O)(Nc1cccc(-c2ccc(N3CCOCC3)nn2)c1)c1ccc(Cl)c(Cl)c1,inactive: 134%
14,COc1ccc(N2CCN(C(=O)CSc3nnc4c(n3)[nH]c3ccccc34)CC2)cc1,inactive: 105%
10,Cn1c(=O)c2c(nc3n2CC(C(C)(C)C)=NN3Cc2ccccc2Cl)n(C)c1=O,active: 151%

# Additional structures.

row,SMILES,intracellular bacterial bioluminescence
1,Cc1c[nH]c(=O)nc1SCC(=O)NC1CCCCC1,inactive: 124%
2,Cc1ccc(CN2CCc3nc(SCC(=O)Nc4cccc(C)c4C)[nH]c(=O)c3C2)cc1,inactive: 44.9%
3,CCC(=O)Nc1cccnc1-c1ccc(C(=O)NCc2cccc(OC)c2)cc1,inactive: 102%
4,CC(=O)Nc1cccc(Oc2nnc(Oc3cccc(NC(C)=O)c3)c3ccccc23)c1,inactive: 98.7%
5,CN(C)c1nc2c(c(=O)[nH]c(=O)n2C)n1CCSc1nc2ccccc2o1,inactive: 99.7%
6,O=C(Nc1cccc(N2CCCC2)c1)c1cc(-c2ccccn2)n[nH]1,inactive: 72.5%
7,CCn1c2c(c(=O)[nH]c1=O)C(c1ccc(F)cc1)C1=C(CC(C)(C)CC1=O)N2 (configuration not stated),inactive: 110%
8,COC(=O)c1ccc(COc2coc(CN3c4ccccc4CC3C)cc2=O)cc1 (configuration not stated),inactive: 38.8%
9,CCOC(=O)c1c(NC(=O)c2cc(Cl)ccc2[N+](=O)[O-])sc(C)c1C,inactive: 96.1%
10,CCOc1ccc(C(=O)C2CCN(CC(=O)Nc3nccs3)CC2)cc1,inactive: 120%
11,Cc1sc2ncnc(SCC(=O)NC(Cc3ccccc3)C(=O)O)c2c1C (configuration not stated),inactive: 94.7%
12,CCNS(=O)(=O)c1cc(-c2cc(C(=O)N3CCCC(C)C3)n[nH]2)ccc1OC (configuration not stated),inactive: 98.8%
13,COc1ccc(-c2nsc(SCC(=O)Nc3ccc(OC)c(OC)c3)n2)cc1,inactive: 80.4%
14,CCOC(=O)c1c(NC(=O)CC2Nc3cc(C)c(C)cc3NC2=O)sc(C)c1C (configuration not stated),inactive: 108%
15,CCOC(=O)c1ccc(NC(=O)C2CC3CCCN3C23C(=O)N(C)c2ccccc23)cc1 (configuration not stated),inactive: 114%
16,Cc1cc2c(=O)n(C)c(SCC(=O)c3ccccc3)nc2s1,inactive: 116%
17,Cc1ccc(S(=O)(=O)N2CCCC(C(N)=O)C2)cc1 (configuration not stated),inactive: 107%
18,Cc1cc(C)n2nc(C(=O)NCCCc3nc4ccccc4[nH]3)cc2n1,inactive: 114%
19,CC(C)CN1N=C(c2ccccc2)Cn2c1nc1c2c(=O)n(CC(C)C)c(=O)n1C,inactive: 97.4%
20,CCc1ccc(-c2noc3c(=O)n(CCC(=O)N4CCCc5ccccc54)cnc23)cc1,inactive: 50%
21,CCOC(=O)c1cc(NC(=O)Nc2ccccn2)c(C)nc1C,inactive: 71.6%
22,CC1Cc2ccccc2N1Cc1cc(=O)c(OCC(=O)Nc2ccc(Cl)cc2)co1 (configuration not stated),inactive: 86.4%
23,COc1ccc(Cl)c2sc(N(CCCn3ccnc3)C(=O)c3cccs3)nc12,inactive: 72.7%
